# From PubChem BioAssay AID540256 (National Center for Advancing Translational Sciences (NCATS), 2011)
# Among all 300,000 compounds or so, about 3,700 (1.2%) were called active. The shares of active, inactive and inconclusive entries below differ from those in the screen. Calls follow the shape of the full dose curve; tested in HEK293 cells. Potencies of inconclusive entries are doubtful fits and often do not repeat.
# Assay: qHTS for Inhibitors of binding or entry into cells for Lassa Virus; also: nearly all actives have a fitted effect of over 50% in size
# Conditions: Lassa virus pseudotype entry inhibition, cell reporter; activity change, negative = inhibition: at 37.9 µM (top of the series) unless noted
# % is scaled to controls: 0 for no effect and ±100 for the full control effect; potency is read from the fitted curve at half-maximal effect.
SMILES,"activity change, negative = inhibition",Potency
CC(=O)N1CCN(Cc2ccc(Cl)nc2)CC1,inactive: -1.76% [at 46.1 µM],–
c1ccc(N2CCN(c3cnc4ccccc4n3)CC2)cc1,–,"inconclusive: 35.5 µM [inhibitor, single point]"
CC(C)Cn1c(-c2csc3ccccc23)n[nH]c1=S,–,"inconclusive: 17.8 µM [inhibitor, partial curve, poor fit]"
Cc1cccc(/C=C(\C#N)C(=O)Nc2ccccn2)c1,inactive: 23.8% [at 46.1 µM],–
COCCCNC(=O)CCc1nc(-c2ccccc2)no1,–,"inconclusive: 0.103 µM [inhibitor, full curve, poor fit]"
COCCn1c(COc2ccc(OC)cc2)nc2ccccc21,inactive: 12.2%,–
Cc1cc(N)n2nc(C)c(-c3ccccc3)c2n1,–,"inconclusive: 32.6 µM [activator, partial curve, poor fit]"
O=C(CN1CCN(c2ccccc2F)CC1)NCc1ccc(Cl)cc1,–,"inconclusive: 7.94 µM [inhibitor, partial curve]"
O=C(CSc1nnc(-c2ccncc2)n1Cc1ccco1)Nc1ccccc1Cl,inactive: 1.77%,–
CC1SC(c2ccccc2Cl)NC1=O (configuration not stated),inactive: 6.46%,–
O=C(Nc1ccc2oc(Cc3ccc(Cl)cc3)nc2c1)c1cccnc1,–,"inconclusive: 11.6 µM [inhibitor, partial curve]"
O=C(Nc1cnn(Cc2ccc(Cl)c(Cl)c2)c1)c1nc2ncccn2n1,–,"inconclusive: 35.5 µM [inhibitor, single point]"
CS(=O)(=O)N1CCc2cc(C(=O)NCCc3ccccc3)ccc21,–,"inconclusive: 1.26 µM [activator, partial curve, poor fit]"
COC(=O)C1=C(C)NC(C)=C(C(=O)OC)C1c1ccc(-c2cc(Cl)ccc2Cl)o1,–,"inconclusive: 12.6 µM [inhibitor, single point]"
CN1CCN(c2ccc(-c3cccc(NC(=O)COc4ccc(Cl)cc4)c3)nn2)CC1,–,"inconclusive: 35.5 µM [inhibitor, single point]"
Cc1n[nH]c(C)c1S(=O)(=O)N(CC(=O)NC(C)c1ccccc1)c1ccc(C(C)C)cc1 (configuration not stated),–,"inconclusive: 8.91 µM [inhibitor, partial curve, poor fit]"
O=C(O)C1CCN(C(=O)c2ccc3c(c2)OCO3)CC1,–,"inconclusive: 3.55 µM [activator, partial curve]"
O=C(NNc1nc(-c2ccccc2)cs1)c1ccc(F)cc1,inactive: 10.2%,–
COCCCNC(=O)CN1C(=O)COc2ccc(S(=O)(=O)N3CCCC3)cc21,inactive: 1.32% [at 46.1 µM],–
O=C(Nc1nc(-c2cc3ccccc3o2)cs1)c1ccc(S(=O)(=O)N2CCCC2)cc1,–,"inconclusive: 20.6 µM [inhibitor, partial curve]"
S=C(NCc1cccc(Cl)c1)NC1CCCCC1,–,"inconclusive: 11.2 µM [inhibitor, partial curve]"
CC(C)CCNC(=O)Nc1ccc2c(c1)N(C)C(=O)c1ccccc1S2,–,"inconclusive: 35.5 µM [inhibitor, single point]"
CN1C(=O)[C@H](Cc2ccc([N+](=O)[O-])cc2)NC1=S,–,"inconclusive: 35.5 µM [activator, single point]"
Cc1ccc2oc(C(=O)NCc3ccccc3)cc(=O)c2c1,inactive: -11.8% [at 46.1 µM],–

# Given with bars between the fields: entries from further up.
SMILES | activity change, negative = inhibition | Potency
O=C(CSc1nnc(-c2ccncc2)n1Cc1ccco1)Nc1ccccc1Cl | inactive: 1.77% | –
CC1SC(c2ccccc2Cl)NC1=O (configuration not stated) | inactive: 6.46% | –
O=C(Nc1ccc2oc(Cc3ccc(Cl)cc3)nc2c1)c1cccnc1 | – | inconclusive: 11.6 µM [inhibitor, partial curve]
O=C(Nc1cnn(Cc2ccc(Cl)c(Cl)c2)c1)c1nc2ncccn2n1 | – | inconclusive: 35.5 µM [inhibitor, single point]
CS(=O)(=O)N1CCc2cc(C(=O)NCCc3ccccc3)ccc21 | – | inconclusive: 1.26 µM [activator, partial curve, poor fit]
COC(=O)C1=C(C)NC(C)=C(C(=O)OC)C1c1ccc(-c2cc(Cl)ccc2Cl)o1 | – | inconclusive: 12.6 µM [inhibitor, single point]
CN1CCN(c2ccc(-c3cccc(NC(=O)COc4ccc(Cl)cc4)c3)nn2)CC1 | – | inconclusive: 35.5 µM [inhibitor, single point]
Cc1n[nH]c(C)c1S(=O)(=O)N(CC(=O)NC(C)c1ccccc1)c1ccc(C(C)C)cc1 (configuration not stated) | – | inconclusive: 8.91 µM [inhibitor, partial curve, poor fit]
O=C(O)C1CCN(C(=O)c2ccc3c(c2)OCO3)CC1 | – | inconclusive: 3.55 µM [activator, partial curve]
O=C(NNc1nc(-c2ccccc2)cs1)c1ccc(F)cc1 | inactive: 10.2% | –
COCCCNC(=O)CN1C(=O)COc2ccc(S(=O)(=O)N3CCCC3)cc21 | inactive: 1.32% [at 46.1 µM] | –
O=C(Nc1nc(-c2cc3ccccc3o2)cs1)c1ccc(S(=O)(=O)N2CCCC2)cc1 | – | inconclusive: 20.6 µM [inhibitor, partial curve]
S=C(NCc1cccc(Cl)c1)NC1CCCCC1 | – | inconclusive: 11.2 µM [inhibitor, partial curve]
CC(C)CCNC(=O)Nc1ccc2c(c1)N(C)C(=O)c1ccccc1S2 | – | inconclusive: 35.5 µM [inhibitor, single point]

# The list goes on.

SMILES,"activity change, negative = inhibition",Potency
O=S(=O)(c1ccc(Cl)cc1)N1CC1c1ccccc1 (configuration not stated),inactive: 5.8%,–
O=C(COC(=O)CCC(=O)c1cccs1)NC1CC1,inactive: 9.97%,–
COc1ccccc1C(C)NC(=O)c1ccc(C)o1 (configuration not stated),inactive: -8.9%,–
Cn1c(SCCCC(=O)c2ccc(Br)cc2)nnc1-c1ccncc1,–,"inconclusive: 23.1 µM [inhibitor, partial curve, poor fit]"
COc1ccc(C(=O)Nc2nnc(S(=O)(=O)N(C)c3ccc(Cl)cc3)s2)cc1OC,inactive: 0.416% [at 46.1 µM],–
C=CCSc1nc(-c2ccc(OC)cc2)c(C#N)c(=O)n1CC=C,–,"inconclusive: 14.1 µM [inhibitor, partial curve, poor fit]"
Cc1ccc2c(c1)[nH]c1c(=O)n(Cc3ccccn3)cnc12,inactive: -1.92%,–
COc1cc(/C=C(\C#N)C(=O)Nc2ccc(C(=O)O)cc2)ccc1OC(=O)c1cccc(F)c1,inactive: 9.93% [at 46.1 µM],–
Cc1nc(N2CCN(c3ccccn3)CC2)c2c(C)c(C(=O)N3CCN(c4cccc(Cl)c4)CC3)sc2n1,–,"inconclusive: 5.62 µM [inhibitor, full curve, poor fit]"
O=C(NCCN1CCOCC1)c1ccc(Cl)c(Cl)c1,inactive: -7.93% [at 46.1 µM],–
CC(=O)COc1nc2c(c(-c3ccco3)c1C#N)CCc1ccccc1-2,–,"inconclusive: 8.91 µM [inhibitor, partial curve, poor fit]"
COc1ccc(S(=O)(=O)c2cnc3ccc(OC)cc3c2N2CCC3(CC2)OCCO3)cc1,–,"inconclusive: 10 µM [inhibitor, partial curve]"
COc1cc(O)oc1C=Nc1ccccc1,–,"inconclusive: 0.58 µM [inhibitor, single point]"
Cc1ccc(SC(C)C(=O)N2CCC(C(N)=O)CC2)cc1 (configuration not stated),–,"inconclusive: 3.16 µM [activator, single point]"
CN(C(=O)CSc1nnc(NCc2ccccc2)s1)C1CCS(=O)(=O)C1 (configuration not stated),inactive: -3.69%,–
CN1CCN(C(=O)OCCOCCOC(=O)N2CCN(C)CC2)CC1,inactive: 2.23%,–
CCOc1ccccc1NC(=O)Cn1cnc2sc(C)c(S(=O)(=O)N3CCC(C)CC3)c2c1=O,inactive: 15.4% [at 46.1 µM],–
COc1ccc(CNC(=S)NC(C)CCc2ccccc2)cc1 (configuration not stated),–,"inconclusive: 35.5 µM [inhibitor, single point]"
Cc1ccc(NC(=O)c2cc3ccccc3o2)cc1S(=O)(=O)N(C)C,–,"inconclusive: 1.16 µM [activator, full curve]"
CN(CC(=O)Nc1ccc(Cl)cc1)C(=O)c1ccc(S(=O)(=O)Nc2ccccc2)cc1,–,"inconclusive: 20 µM [inhibitor, single point]"
Cc1ccc(NC(=O)C2OCCc3ccccc32)cc1C (configuration not stated),–,"inconclusive: 6.31 µM [activator, single point]"
CC(Oc1ccccc1F)C(=O)NNC(=O)CC(C)c1ccccc1 (configuration not stated),–,"inconclusive: 35.5 µM [activator, partial curve, poor fit]"
O=C(CSc1nnc(-c2cccnc2)n1Cc1ccco1)Nc1nc(-c2ccc(F)cc2)cs1,inactive: -6.58%,–
